Laboratory results as given in patent US20140017240A1 (University of California, published 2014).
No constants are given. Whether binding was seen depends on the method and setting. Binding calls can cover weak binding; strength is not graded here.

By UniProt entry, the sequences of proteins in these tests, tags left out. Where a name states a change or a piece, a line headed by the entry shows the natural chain unless it says otherwise.
UniProt P19022: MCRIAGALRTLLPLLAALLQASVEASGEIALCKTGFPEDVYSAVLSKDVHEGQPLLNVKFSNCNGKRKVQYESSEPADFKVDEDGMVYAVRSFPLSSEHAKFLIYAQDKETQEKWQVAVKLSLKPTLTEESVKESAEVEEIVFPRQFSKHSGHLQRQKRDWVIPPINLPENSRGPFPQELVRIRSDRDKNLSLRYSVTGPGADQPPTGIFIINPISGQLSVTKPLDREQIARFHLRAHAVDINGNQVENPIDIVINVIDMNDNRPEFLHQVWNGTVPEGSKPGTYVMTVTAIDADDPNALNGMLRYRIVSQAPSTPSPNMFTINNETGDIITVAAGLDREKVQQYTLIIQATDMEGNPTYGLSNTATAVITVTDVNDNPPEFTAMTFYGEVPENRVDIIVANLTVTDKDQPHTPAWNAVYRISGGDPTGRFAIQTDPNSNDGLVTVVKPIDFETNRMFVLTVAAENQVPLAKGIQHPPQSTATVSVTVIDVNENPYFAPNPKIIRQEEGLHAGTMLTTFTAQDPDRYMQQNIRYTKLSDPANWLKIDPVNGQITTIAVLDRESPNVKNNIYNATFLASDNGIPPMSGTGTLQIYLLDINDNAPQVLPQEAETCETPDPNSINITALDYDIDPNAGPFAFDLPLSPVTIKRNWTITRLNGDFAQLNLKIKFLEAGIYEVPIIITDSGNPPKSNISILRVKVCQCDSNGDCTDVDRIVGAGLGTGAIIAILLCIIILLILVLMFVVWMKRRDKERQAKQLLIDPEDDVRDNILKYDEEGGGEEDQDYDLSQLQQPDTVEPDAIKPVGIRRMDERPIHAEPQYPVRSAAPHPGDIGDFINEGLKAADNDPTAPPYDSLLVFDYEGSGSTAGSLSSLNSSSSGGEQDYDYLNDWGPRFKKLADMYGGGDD

Tests used:
[1] = target: N-cadherin forth domain recombinant protein with 6 histidine tag (human) (UniProt P19022); experiment: phage ELISA, summary
[2] = target: N-cadherin forth domain recombinant protein with 6 histidine tag (human) (UniProt P19022); experiment: phage ELISA

B1: A14 ScFv phage antibody clone (scFv)
scFv: MAQVQLVQSGGGLAQPGGSLRLSCAASGFTFSRHAMIWVRQAPGKGLEWVSSISGSSDSTSYADSVKGRFTISRDNSKNTLYLQMNTLRAEDTAVYYCAKATGYSYYYGMDVWGPGTTVTVSSGGGGSGGGGSGGGGSDIQMTQSPSSLSASLGDRVTITCRASQGISNYLAWYQQKPGKAPKLLIYGATTLQHGVPSRFSGSGSGTDFSLTISSLQPEDFAIYFCQQAHSFPPTFGGGTKLEIKR
notes: Clone A1 was renamed A14; Selected on ECD4-6HIS; also called A14 (A1)
For B1, the binding [1] was “binds” and the binding [2] was “binds”.
